Laboratory results: the supplement of paper PMC10849652
Some of the results follow.

By UniProt entry, the sequences of proteins in these tests, tags left out. Where a name states a change or a piece, a line headed by the entry shows the natural chain unless it says otherwise.
UniProt P49189: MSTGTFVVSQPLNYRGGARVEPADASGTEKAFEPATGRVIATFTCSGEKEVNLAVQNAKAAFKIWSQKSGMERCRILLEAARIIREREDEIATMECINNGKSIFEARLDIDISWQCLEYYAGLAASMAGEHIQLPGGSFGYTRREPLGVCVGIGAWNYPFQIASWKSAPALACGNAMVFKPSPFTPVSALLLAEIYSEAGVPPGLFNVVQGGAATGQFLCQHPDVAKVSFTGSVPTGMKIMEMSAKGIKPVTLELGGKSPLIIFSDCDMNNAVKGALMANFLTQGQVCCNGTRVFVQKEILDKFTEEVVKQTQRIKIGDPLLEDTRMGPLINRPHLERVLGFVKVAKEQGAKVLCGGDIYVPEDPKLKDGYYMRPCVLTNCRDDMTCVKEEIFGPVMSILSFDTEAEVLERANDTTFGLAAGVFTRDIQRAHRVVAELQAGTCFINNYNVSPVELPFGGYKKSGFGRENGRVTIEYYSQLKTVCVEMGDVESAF
UniProt Q8IY63: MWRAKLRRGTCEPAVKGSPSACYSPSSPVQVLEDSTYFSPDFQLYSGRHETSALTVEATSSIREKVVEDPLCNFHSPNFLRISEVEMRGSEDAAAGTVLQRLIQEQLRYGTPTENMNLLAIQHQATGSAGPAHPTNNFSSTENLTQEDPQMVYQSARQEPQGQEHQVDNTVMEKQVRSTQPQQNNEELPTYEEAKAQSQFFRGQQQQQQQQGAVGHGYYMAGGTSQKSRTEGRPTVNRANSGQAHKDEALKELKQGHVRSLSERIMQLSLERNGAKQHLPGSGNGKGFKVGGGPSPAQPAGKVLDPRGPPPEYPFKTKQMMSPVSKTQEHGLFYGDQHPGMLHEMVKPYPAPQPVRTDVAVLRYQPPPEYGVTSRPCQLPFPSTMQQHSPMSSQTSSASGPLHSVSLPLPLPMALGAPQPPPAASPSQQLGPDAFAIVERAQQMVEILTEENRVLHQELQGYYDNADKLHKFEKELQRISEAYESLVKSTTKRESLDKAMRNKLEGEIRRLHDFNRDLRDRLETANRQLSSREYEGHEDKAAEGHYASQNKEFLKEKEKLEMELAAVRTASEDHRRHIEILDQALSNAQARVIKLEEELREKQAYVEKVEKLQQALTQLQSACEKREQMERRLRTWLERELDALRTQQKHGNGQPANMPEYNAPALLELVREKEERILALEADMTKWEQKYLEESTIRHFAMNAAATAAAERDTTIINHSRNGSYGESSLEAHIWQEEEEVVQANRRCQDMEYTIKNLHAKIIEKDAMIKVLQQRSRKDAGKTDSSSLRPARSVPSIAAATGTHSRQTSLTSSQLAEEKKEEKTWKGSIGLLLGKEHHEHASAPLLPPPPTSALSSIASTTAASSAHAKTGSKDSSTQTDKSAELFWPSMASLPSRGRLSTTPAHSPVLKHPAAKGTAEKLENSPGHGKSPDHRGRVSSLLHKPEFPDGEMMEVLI
UniProt Q9NP73: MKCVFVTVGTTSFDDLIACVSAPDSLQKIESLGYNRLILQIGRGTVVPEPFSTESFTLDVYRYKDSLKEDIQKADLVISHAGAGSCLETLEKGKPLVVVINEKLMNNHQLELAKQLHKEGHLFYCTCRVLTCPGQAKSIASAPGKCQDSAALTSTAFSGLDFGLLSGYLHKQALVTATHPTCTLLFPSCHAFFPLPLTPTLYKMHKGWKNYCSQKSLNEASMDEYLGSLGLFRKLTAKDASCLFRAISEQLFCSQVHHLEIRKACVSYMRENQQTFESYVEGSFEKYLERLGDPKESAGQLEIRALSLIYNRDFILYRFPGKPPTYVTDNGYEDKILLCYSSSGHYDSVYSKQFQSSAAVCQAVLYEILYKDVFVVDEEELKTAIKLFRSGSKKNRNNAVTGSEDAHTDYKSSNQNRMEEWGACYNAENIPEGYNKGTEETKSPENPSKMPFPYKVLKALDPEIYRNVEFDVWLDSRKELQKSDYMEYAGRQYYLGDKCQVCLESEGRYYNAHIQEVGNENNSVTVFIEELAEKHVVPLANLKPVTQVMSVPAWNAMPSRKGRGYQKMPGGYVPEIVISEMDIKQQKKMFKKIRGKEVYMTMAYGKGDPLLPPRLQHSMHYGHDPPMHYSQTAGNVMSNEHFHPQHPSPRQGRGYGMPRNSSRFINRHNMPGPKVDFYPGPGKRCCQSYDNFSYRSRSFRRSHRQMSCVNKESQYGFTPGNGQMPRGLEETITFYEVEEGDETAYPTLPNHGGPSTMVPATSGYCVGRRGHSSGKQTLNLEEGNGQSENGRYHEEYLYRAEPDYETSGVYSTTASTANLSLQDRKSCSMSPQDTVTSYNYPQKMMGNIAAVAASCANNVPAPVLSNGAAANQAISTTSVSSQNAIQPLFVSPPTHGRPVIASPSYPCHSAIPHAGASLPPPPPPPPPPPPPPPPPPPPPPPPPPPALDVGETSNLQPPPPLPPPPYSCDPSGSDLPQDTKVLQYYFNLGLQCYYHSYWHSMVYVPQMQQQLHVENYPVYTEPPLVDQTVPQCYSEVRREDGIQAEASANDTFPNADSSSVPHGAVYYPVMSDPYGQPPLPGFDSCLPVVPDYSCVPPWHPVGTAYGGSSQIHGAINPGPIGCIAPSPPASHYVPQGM
UniProt Q2TAA5: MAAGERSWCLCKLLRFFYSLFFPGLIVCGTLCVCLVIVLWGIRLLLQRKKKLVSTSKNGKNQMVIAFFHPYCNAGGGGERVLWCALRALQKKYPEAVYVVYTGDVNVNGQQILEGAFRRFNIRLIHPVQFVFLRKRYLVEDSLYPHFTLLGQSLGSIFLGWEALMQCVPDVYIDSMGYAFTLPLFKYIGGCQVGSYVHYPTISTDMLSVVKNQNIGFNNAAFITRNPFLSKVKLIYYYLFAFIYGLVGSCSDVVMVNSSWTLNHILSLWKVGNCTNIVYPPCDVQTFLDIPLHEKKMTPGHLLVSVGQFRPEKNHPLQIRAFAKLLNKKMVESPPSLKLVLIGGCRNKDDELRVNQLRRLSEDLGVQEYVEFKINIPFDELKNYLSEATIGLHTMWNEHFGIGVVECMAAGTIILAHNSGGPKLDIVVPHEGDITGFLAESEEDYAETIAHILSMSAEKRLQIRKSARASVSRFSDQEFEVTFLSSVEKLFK
UniProt Q9H553: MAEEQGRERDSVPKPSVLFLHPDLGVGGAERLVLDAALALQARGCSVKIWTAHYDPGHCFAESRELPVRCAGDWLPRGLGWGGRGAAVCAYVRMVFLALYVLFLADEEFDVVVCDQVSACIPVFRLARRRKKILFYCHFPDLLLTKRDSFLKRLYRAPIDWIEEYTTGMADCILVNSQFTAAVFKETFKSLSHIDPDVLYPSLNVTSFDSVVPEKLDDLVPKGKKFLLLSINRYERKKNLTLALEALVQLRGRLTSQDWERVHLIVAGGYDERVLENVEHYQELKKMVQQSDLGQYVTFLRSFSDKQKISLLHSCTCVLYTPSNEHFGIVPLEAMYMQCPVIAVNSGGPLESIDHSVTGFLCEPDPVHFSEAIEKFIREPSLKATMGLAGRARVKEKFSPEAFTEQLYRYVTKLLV
UniProt P05091: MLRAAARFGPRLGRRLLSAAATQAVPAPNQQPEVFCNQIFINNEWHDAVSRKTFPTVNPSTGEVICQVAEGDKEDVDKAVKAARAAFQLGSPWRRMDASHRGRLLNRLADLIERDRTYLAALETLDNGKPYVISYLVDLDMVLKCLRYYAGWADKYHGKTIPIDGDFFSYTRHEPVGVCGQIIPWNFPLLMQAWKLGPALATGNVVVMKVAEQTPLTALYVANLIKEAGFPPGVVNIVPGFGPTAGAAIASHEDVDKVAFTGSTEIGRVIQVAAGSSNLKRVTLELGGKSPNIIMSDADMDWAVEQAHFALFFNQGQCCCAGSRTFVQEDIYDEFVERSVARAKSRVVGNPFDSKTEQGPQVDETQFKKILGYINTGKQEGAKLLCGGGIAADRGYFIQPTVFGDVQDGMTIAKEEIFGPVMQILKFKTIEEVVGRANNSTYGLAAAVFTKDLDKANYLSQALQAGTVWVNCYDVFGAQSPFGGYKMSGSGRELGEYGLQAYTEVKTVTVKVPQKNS
UniProt Q9BV10: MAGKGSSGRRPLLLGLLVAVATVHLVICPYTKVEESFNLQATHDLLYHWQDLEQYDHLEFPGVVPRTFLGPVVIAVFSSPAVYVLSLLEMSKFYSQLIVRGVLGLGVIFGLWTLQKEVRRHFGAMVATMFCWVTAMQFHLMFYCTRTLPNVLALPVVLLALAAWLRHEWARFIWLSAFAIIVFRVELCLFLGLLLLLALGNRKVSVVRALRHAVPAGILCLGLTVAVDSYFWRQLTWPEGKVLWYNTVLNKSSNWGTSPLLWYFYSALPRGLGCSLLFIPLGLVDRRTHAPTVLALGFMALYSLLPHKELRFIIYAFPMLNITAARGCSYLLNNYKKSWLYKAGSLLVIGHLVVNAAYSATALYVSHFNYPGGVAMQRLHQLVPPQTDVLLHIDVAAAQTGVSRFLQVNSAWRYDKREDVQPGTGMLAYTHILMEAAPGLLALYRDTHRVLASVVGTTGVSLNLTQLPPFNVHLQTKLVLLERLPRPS
UniProt O95831, whole entry, looked up: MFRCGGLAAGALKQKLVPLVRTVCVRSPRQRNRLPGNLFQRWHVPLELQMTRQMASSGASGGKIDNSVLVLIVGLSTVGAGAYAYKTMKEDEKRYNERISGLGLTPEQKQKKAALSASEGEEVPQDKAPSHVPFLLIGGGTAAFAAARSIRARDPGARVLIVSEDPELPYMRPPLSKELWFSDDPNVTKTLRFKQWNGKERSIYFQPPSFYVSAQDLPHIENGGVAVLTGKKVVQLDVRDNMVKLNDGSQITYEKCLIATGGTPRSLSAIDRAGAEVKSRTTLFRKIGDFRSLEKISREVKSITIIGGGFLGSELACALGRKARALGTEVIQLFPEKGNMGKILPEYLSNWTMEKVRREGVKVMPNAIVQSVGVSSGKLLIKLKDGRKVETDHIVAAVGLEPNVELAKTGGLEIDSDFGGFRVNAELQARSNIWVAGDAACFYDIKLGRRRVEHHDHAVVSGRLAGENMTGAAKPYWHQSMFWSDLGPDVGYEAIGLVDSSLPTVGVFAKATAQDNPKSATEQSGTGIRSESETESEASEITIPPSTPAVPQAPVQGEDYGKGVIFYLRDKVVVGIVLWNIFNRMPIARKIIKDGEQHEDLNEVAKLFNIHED
UniProt O00170: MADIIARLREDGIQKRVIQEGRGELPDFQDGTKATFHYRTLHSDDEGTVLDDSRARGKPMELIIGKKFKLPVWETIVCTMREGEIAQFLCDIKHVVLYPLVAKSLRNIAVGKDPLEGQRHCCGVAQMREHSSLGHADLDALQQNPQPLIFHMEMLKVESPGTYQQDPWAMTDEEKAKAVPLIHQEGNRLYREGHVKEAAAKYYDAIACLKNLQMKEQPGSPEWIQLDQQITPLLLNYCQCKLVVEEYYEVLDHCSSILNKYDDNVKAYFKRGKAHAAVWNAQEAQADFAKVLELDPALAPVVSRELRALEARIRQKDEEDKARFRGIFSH
UniProt Q99943: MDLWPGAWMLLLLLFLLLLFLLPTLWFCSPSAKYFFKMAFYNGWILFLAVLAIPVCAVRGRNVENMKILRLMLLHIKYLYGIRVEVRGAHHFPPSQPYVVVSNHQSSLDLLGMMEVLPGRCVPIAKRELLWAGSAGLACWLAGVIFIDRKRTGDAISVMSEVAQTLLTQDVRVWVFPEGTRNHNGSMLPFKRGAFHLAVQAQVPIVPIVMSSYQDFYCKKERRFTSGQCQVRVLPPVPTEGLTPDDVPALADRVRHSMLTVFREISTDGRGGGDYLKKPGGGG
UniProt P30566: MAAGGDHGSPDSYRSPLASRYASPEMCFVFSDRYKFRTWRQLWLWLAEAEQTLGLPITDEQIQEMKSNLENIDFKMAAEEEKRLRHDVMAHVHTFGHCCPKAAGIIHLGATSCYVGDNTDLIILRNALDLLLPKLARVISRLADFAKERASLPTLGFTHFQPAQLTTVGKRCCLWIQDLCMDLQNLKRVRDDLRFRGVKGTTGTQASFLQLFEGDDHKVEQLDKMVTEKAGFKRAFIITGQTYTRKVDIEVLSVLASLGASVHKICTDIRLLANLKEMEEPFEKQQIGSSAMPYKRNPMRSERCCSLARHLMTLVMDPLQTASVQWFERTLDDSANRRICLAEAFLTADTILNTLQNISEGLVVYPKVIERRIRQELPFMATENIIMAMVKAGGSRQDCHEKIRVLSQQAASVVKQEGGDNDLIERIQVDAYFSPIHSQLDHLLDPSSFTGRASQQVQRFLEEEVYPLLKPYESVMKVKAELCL
UniProt P27144: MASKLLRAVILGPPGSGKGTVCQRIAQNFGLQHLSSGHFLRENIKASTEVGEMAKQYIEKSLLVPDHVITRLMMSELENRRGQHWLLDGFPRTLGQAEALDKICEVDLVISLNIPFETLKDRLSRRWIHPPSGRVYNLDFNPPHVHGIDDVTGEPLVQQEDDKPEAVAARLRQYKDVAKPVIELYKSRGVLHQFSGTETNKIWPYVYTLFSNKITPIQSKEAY

How the values were obtained:
Experiment in all cases: log2 fold change, soluble protein after heating vs DMSO (PISA); higher = thermal stabilisation; K562 cells, 10 uM, 30 min; active = over 0.2 and 3.5 SD of the protein, either way, in both replicates (recomputed)
[1] = compound: C1=CC=C(C=C1)[C@H](COC2=CC3=C(C=C2)NC(=O)N3)NC(=O)C4=CC=CN(C4=O)CC5=CC(=C(C=C5)F)F
Summary of the method: (§1)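 K562 cells at 2×10^6 cells/mL were exposed to 10 μM compound for 30 min, then aliquots were heated for 3 min across 48°C-58°C, pooled, and extracted in PBS containing 0.5% NP-40 at 4°C. The supernatant after 21,000xg for 90 min was taken as soluble protein and measured by TMTpro 16plex LC-MS/MS with channel sums equalised. Thermal stability is reported relative to control samples, with values from duplicates. Fold changes are given on a log2 scale.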

[2] = compound: CC1=C(SC2=C1C(=N[C@H](C3=NN=C(N32)C)CC(=O)N)C4=CC=C(C=C4)Cl)C
Summary of the method: as §1

[3] = compound: CC1=C2C(=CC=C1)N=C(N(C2=O)C3=CC=CC=C3C)CN4C=NC5=C(N=CN=C54)N
Summary of the method: as §1

[4] = compound: Cc1sc2c(c1C)C(c1ccc(Cl)cc1)=N[C@@H](CC(=O)OC(C)(C)C)c1nnc(C)n1-2
Summary of the method: as §1

[5] = compound: c1ccc([C@@H]2C[C@H]2NC2CCNCC2)cc1
Summary of the method: as §1

Measured: log2 fold change

ADH5 (UniProt P11766)
inactive: [1] 0.026 | [2] 0.024 | [3] 0.025 | [4] -0.023 | [5] 0.017

AEBP2 (UniProt Q6ZN18)
inactive: [1] 0.048

ALDH9A1 isoform 3 (UniProt P49189)
inactive: [1] -0.007 | [2] 0.029 | [3] 0.019 | [4] -0.019 | [5] 0.028

ALKBH4 (UniProt Q9NXW9)
inactive: [1] 0.023 | [2] -0.063 | [3] -0.078 | [4] 0.079 | [5] -0.033

AMOTL1 (UniProt Q8IY63)
inactive: [1] 0.004

AGO3 (UniProt Q9H9G7)
inactive: [1] 0.04 | [2] -0.086 | [3] -0.004 | [4] 0.166 | [5] 0.019

AIDA (UniProt Q96BJ3)
inactive: [1] -0.033 | [2] 0.014 | [3] 0.061 | [4] 0.03 | [5] -0.022

ALG13 (UniProt Q9NP73)
inactive: [1] -0.042 | [2] 0.132 | [3] 0.133 | [4] -0.092 | [5] 0.037

ALAS1 (UniProt P13196)
inactive: [1] -0.006

ALG11 (UniProt Q2TAA5)
inactive: [1] 0.001 | [2] 0.085 | [3] 0.144 | [4] -0.051 | [5] -0.021

ALKBH6 isoform 2 (UniProt Q3KRA9)
inactive: [1] -0.004 | [2] 0.072 | [3] 0.031 | [4] -0.026 | [5] 0.133

ALG2 (UniProt Q9H553)
inactive: [1] 0.038 | [2] 0.055 | [3] 0.06 | [4] 0.004 | [5] -0.033

ALDH2 (UniProt P05091)
inactive: [1] 0.009 | [2] 0.065 | [3] 0.032 | [4] -0.043 | [5] -0.001

ALG12 (UniProt Q9BV10)
inactive: [1] -0.04 | [2] 0.032 | [3] -0.093 | [4] 0 | [5] 0.001

AKAP8L (UniProt Q9ULX6)
inactive: [1] -0.011 | [2] -0.186 | [3] 0.054 | [4] -0.047 | [5] 0.043

ALDH18A1 (UniProt P54886)
inactive: [1] -0.107 | [2] -0.038 | [3] 0.028 | [4] 0.018 | [5] 0.02

AIFM1 (UniProt O95831)
inactive: [1] 0.011 | [2] 0.015 | [3] 0.055 | [4] -0.011 | [5] 0.007

AIP (UniProt O00170)
inactive: [1] -0.031 | [2] 0.078 | [3] 0.042 | [4] -0.004 | [5] -0.018

AKT2 (UniProt P31751)
inactive: [1] -0.124 | [2] 0.055 | [3] 0.061 | [4] 0.009 | [5] -0.028

Retrieved one by one from the entries so far (two):
AKAP8L (UniProt Q9ULX6)
inactive: [1] -0.011 | [2] -0.186 | [3] 0.054 | [4] -0.047 | [5] 0.043

ALDH18A1 (UniProt P54886)
inactive: [1] -0.107 | [2] -0.038 | [3] 0.028 | [4] 0.018 | [5] 0.02

The results go on:

ALDOC (UniProt J3QKP5)
inactive: [1] 0.15 | [2] 0.012 | [3] 0.309 | [4] 0.114 | [5] -0.014

AGPAT1 (UniProt Q99943)
inactive: [1] -0.006 | [2] 0.075 | [3] 0.103 | [4] -0.032 | [5] 0.023

ADSL (UniProt P30566)
inactive: [1] 0.027 | [2] 0.013 | [3] 0.002 | [4] -0.016 | [5] 0.031

AK4 (UniProt P27144)
inactive: [1] -0.015 | [2] 0.068 | [3] 0.063 | [4] -0.065 | [5] 0.015

AMFR (UniProt Q9UKV5)
inactive: [1] -0.043 | [2] -0.004 | [3] 0.023 | [4] 0.024 | [5] -0.046

ALDH1A1 (UniProt P00352)
inactive: [1] 0.034 | [2] 0.019 | [3] 0.02 | [4] -0.05 | [5] -0.011

ALDH6A1 (UniProt Q02252)
inactive: [1] 0.082 | [2] 0.124 | [3] 0.128 | [4] -0.07 | [5] 0.019
